Values from PubChem BioAssay AID1053208 (Peter MacCallum Cancer Centre, 2014)

Test: 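Synthetic lethal interactions between gene loss and doxorubicin in osteosarcoma cells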 (primary screen)
Cell system: mouse osteosarcoma cells, early-passage culture from an engineered mouse model of fibroblastic bone tumour
Reagents: siRNA pool against mouse genes, 40 nM
Timing: about 120 h (48 h before drug, then 72 h with drug)
Challenge: doxorubicin 100 nM for 72 h, roughly 30-40% inhibitory dose
Read-out: 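Viability read as ATP luminescence after 72 h of 100 nM doxorubicin or none, duplicate wells averaged, scaled to non-targeting siRNA, then expressed as robust z-scores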
Reading the numbers: viability z-score with doxorubicin: higher = more viable cells under doxorubicin; viability z-score without drug: higher = more viable cells with knock-down alone
Call rule: 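a pool counts as active when its viability z-score with doxorubicin is -2 or below and its z-score without drug lies between -2 and 2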
In all, the deposit lists about 17,000 reagents; this is a random part of them. 788 of them (4.7%) count as active. 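Calls rest on z-score classes alone; an extra cut-off of viability at most 70% of control was not applied to them.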 Entries without a mark were called inactive. Reagents against one gene are numbered here. Further read-outs or replicates are left out here.

Tm7sf2: combined z-score class = no change with or without drug; viability z-score with doxorubicin = 0; viability z-score without drug = 0.51
Brf1: combined z-score class = no change with or without drug; viability z-score with doxorubicin = 0.67; viability z-score without drug = -1.18
Grid2ip: combined z-score class = no change with or without drug; viability z-score with doxorubicin = 0; viability z-score without drug = -0.51
Efcab8: combined z-score class = no change with or without drug; viability z-score with doxorubicin = 1.12; viability z-score without drug = -0.17
Paip2: combined z-score class = no change with or without drug; viability z-score with doxorubicin = -1.01; viability z-score without drug = -0.51
Tmed1: combined z-score class = no change with or without drug; viability z-score with doxorubicin = 1.12; viability z-score without drug = -0.17
Cldn8: combined z-score class = low cell count with doxorubicin only (active); viability z-score with doxorubicin = -2.25; viability z-score without drug = -1.52
Lin28a: combined z-score class = no change with or without drug; viability z-score with doxorubicin = 0.9; viability z-score without drug = 0.17
Ddx20: combined z-score class = no change with or without drug; viability z-score with doxorubicin = -0.9; viability z-score without drug = -0.17
Dst: combined z-score class = high cell count with doxorubicin only; viability z-score with doxorubicin = 2.47; viability z-score without drug = 1.18
Gem: combined z-score class = no change with or without drug; viability z-score with doxorubicin = 0.56; viability z-score without drug = 0.17
Gabrb2 #1: combined z-score class = no change with or without drug; viability z-score with doxorubicin = 0.34; viability z-score without drug = 0.17
Gabrb2 #2: combined z-score class = no change with or without drug; viability z-score with doxorubicin = -0.67; viability z-score without drug = -0.51
Mecp2: combined z-score class = no change with or without drug; viability z-score with doxorubicin = 0.9; viability z-score without drug = -0.84
Nr1h3: combined z-score class = no change with or without drug; viability z-score with doxorubicin = 1.57; viability z-score without drug = -0.17
Ms4a13: combined z-score class = high cell count without drug only; viability z-score with doxorubicin = 1.35; viability z-score without drug = 2.87
Oat: combined z-score class = no change with or without drug; viability z-score with doxorubicin = -0.22; viability z-score without drug = 1.18
Dusp15: combined z-score class = high cell count with doxorubicin only; viability z-score with doxorubicin = 2.02; viability z-score without drug = 0.51
Ppm1g: combined z-score class = no change with or without drug; viability z-score with doxorubicin = 0.67; viability z-score without drug = -0.51
Kpna1: combined z-score class = no change with or without drug; viability z-score with doxorubicin = 0; viability z-score without drug = -0.84
Rab2a: combined z-score class = no change with or without drug; viability z-score with doxorubicin = 0.11; viability z-score without drug = 0
Khdrbs2: combined z-score class = no change with or without drug; viability z-score with doxorubicin = -1.35; viability z-score without drug = -0.84
Eif2s1: combined z-score class = low cell count with and without drug; viability z-score with doxorubicin = -4.27; viability z-score without drug = -3.54
Il2rb: combined z-score class = no change with or without drug; viability z-score with doxorubicin = -0.45; viability z-score without drug = 0.17
Rad18: combined z-score class = no change with or without drug; viability z-score with doxorubicin = -0.22; viability z-score without drug = 0.34
Tmem165: combined z-score class = no change with or without drug; viability z-score with doxorubicin = 1.12; viability z-score without drug = 0.51
Tspan17: combined z-score class = no change with or without drug; viability z-score with doxorubicin = 0.67; viability z-score without drug = 1.18
Timeless: combined z-score class = no change with or without drug; viability z-score with doxorubicin = 0.22; viability z-score without drug = 0.51
Smim7: combined z-score class = no change with or without drug; viability z-score with doxorubicin = -0.11; viability z-score without drug = -0.17
Sharpin: combined z-score class = no change with or without drug; viability z-score with doxorubicin = -1.12; viability z-score without drug = -0.17
Spred3: combined z-score class = no change with or without drug; viability z-score with doxorubicin = -0.22; viability z-score without drug = 1.52
Ap1g2: combined z-score class = no change with or without drug; viability z-score with doxorubicin = -0.45; viability z-score without drug = -0.84
Actg2: combined z-score class = no change with or without drug; viability z-score with doxorubicin = -0.9; viability z-score without drug = -0.17
Mfap2: combined z-score class = no change with or without drug; viability z-score with doxorubicin = -0.22; viability z-score without drug = 0.34
Slc6a1: combined z-score class = no change with or without drug; viability z-score with doxorubicin = 1.24; viability z-score without drug = 0.84
Uimc1: combined z-score class = no change with or without drug; viability z-score with doxorubicin = -1.12; viability z-score without drug = -0.84
